No constants are given. Whether binding was seen depends on the method and setting. Binding seen in cells or lysates may run through a third protein. Some binding calls cover weakened binding; strength is not graded here.

Amino acid sequences for entries named in this document (tags omitted).
UniProt Q13620: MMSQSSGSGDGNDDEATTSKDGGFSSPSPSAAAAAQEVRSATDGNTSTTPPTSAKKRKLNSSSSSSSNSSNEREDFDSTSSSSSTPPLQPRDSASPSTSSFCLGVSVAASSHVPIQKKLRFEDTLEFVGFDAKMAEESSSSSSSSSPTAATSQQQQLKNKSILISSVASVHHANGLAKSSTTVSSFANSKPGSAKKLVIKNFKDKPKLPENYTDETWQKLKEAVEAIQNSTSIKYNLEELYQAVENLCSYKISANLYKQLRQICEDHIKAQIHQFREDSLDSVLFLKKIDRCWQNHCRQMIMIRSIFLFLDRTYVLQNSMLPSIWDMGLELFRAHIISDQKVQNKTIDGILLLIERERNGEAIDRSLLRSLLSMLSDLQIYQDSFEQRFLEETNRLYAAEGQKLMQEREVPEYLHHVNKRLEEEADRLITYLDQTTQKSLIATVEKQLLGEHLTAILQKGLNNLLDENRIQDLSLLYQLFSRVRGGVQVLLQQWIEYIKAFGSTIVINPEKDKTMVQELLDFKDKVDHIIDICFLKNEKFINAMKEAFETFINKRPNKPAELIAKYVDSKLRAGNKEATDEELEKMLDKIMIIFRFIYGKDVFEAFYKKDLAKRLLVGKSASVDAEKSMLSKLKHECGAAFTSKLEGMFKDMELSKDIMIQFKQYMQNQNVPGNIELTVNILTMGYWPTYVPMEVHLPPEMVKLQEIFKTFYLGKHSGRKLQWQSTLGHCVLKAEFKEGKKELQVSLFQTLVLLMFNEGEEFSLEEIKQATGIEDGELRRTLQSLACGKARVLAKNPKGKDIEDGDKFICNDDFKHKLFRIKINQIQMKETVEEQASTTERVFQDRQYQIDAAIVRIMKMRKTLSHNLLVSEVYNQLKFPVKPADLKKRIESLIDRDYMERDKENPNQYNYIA
UniProt Q16531: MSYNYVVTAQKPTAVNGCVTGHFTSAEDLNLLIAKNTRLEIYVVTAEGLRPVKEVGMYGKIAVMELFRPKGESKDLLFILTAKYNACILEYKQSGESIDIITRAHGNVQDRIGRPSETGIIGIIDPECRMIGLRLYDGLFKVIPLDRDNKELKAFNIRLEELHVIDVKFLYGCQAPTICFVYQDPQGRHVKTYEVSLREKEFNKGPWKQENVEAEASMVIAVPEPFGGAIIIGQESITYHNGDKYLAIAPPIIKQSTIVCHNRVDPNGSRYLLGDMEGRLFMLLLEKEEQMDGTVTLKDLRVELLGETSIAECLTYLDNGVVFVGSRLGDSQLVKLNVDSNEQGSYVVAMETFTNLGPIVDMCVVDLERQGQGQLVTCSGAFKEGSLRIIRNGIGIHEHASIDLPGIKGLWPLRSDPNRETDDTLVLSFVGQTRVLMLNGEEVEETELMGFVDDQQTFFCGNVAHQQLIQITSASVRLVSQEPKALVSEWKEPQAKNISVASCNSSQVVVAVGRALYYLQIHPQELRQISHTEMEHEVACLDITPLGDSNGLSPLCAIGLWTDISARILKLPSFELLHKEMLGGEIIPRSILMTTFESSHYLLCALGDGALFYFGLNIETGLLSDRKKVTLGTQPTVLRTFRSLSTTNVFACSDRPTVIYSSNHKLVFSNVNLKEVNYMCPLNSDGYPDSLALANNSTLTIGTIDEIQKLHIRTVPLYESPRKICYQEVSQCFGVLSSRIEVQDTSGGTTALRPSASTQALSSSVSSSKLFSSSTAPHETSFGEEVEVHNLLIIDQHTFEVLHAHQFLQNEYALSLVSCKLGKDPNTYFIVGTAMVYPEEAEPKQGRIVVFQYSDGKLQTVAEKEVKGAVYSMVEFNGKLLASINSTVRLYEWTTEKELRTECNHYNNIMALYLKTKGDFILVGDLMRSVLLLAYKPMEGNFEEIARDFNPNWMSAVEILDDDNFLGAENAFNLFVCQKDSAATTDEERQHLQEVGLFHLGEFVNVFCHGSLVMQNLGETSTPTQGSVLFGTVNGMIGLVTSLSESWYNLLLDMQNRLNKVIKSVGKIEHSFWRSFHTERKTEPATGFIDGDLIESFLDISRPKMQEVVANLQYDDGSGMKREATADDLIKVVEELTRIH

For test [1], the target named is p53 (human (endogenous in HK2)) (UniProt P04637). Description: co-IP; HK2 cells treated with cisplatin and MG132; lysis buffer 150 mM NaCl, 50 mM Tris-HCl (pH7.4), 1% Triton X-100; supernatant incubated with CUL4B antibody, p53 antibody or control IgG at 4 °C overnight; Protein A/G magnetic beads; washed 5 times with PBST; Western blotting. On the technique in general: Immunoblotting shows a protein as a band on a membrane.

The target of test [2] is Cullin 4B (human (endogenous in HK2)) (UniProt Q13620). The test is described as above.

As to Cullin 4B (from UniProt Q13620 1-913), in test [1], the binding result is listed as “binds”. In the case of DDB1 (from UniProt Q16531 1-1140), the binding result in test [2] is reported as “binds”.

The values are drawn from PMC11655551.
